Data from publication PMC10598275.
These are yes or no findings as the source states them, for the method shown. In cells and extracts the contact can be indirect. Some binding calls cover weakened binding; strength is not graded here.

The chains behind the UniProt entries cited, without tags or fusion partners.
UniProt Q05397: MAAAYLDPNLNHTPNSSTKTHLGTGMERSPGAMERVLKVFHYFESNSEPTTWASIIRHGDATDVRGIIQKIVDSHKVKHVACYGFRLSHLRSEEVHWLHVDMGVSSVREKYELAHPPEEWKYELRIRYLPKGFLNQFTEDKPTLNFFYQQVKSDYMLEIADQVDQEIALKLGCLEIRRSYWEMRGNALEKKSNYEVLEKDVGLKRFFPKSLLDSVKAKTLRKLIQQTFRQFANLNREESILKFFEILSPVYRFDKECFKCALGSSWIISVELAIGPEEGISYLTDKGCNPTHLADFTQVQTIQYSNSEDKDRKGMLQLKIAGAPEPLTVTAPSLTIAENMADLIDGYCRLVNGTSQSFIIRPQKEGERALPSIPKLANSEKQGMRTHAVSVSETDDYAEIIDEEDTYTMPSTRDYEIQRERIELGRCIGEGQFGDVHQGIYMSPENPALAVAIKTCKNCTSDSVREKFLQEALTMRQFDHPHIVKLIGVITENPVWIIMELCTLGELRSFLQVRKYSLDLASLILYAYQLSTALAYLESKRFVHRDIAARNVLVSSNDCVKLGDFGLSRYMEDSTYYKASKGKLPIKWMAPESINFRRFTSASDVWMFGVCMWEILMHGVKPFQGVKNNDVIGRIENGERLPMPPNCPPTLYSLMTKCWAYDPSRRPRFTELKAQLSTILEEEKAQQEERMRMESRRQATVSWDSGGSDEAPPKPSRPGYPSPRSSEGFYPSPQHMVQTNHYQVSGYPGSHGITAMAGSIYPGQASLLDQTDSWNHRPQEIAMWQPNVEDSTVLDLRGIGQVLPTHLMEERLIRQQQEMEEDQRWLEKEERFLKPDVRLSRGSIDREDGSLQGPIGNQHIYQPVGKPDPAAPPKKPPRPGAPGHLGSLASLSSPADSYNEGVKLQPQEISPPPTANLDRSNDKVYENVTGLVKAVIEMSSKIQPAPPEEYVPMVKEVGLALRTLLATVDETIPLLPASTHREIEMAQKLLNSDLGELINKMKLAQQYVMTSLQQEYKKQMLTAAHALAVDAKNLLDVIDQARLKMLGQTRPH

Target: protein tyrosine kinase 2 (PTK2) (human (endogenous in OVCAR3 and A2780)) (UniProt Q05397)
Test: co-IP; lysates of OVCAR3 and A2780 cells transfected with si-NRSN2-AS1 (or control), after MG132 (20 uM) for 6 h; incubated with anti-PTK2 or anti-IgG overnight, then beads 2 h at 4 °C; immunoblot for MG53

B1: mitsugumin 53 (MG53) (protein, UniProt Q6ZMU5 1-477)
chain: MSAAPGLLHQELSCPLCLQLFDAPVTAECGHSFCRACLGRVAGEPAADGTVLCPCCQAPTRPQALSTNLQLARLVEGLAQVPQGHCEEHLDPLSIYCEQDRALVCGVCASLGSHRGHRLLPAAEAHARLKTQLPQQKLQLQEACMRKEKSVAVLEHQLVEVEETVRQFRGAVGEQLGKMRVFLAALEGSLDREAERVRGEAGVALRRELGSLNSYLEQLRQMEKVLEEVADKPQTEFLMKYCLVTSRLQKILAESPPPARLDIQLPIISDDFKFQVWRKMFRALMPALEELTFDPSSAHPSLVVSSSGRRVECSEQKAPPAGEDPRQFDKAVAVVAHQQLSEGEHYWEVDVGDKPRWALGVIAAEAPRRGRLHAVPSQGLWLLGLREGKILEAHVEAKEPRALRSPERRPTRIGLYLSFGDGVLSFYDASDADALVPLFAFHERLPRPVYPFFDVCWHDKGKNAQPLLLVGPEGAEA
binding: binds
